Binding data for twelve molecules are collected here from PMC7616277.

By UniProt entry, the sequences of proteins in these tests, tags left out. Where a name states a change or a piece, a line headed by the entry shows the natural chain unless it says otherwise.
UniProt P48484: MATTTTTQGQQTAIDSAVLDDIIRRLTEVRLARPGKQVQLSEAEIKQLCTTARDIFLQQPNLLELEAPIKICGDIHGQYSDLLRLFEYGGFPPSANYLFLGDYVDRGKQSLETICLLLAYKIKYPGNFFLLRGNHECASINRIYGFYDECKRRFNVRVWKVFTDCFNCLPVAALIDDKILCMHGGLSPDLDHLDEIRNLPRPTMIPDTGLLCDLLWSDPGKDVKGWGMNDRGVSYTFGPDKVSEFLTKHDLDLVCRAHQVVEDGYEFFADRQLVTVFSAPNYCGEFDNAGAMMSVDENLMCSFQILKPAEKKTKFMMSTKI
UniProt Q94F49: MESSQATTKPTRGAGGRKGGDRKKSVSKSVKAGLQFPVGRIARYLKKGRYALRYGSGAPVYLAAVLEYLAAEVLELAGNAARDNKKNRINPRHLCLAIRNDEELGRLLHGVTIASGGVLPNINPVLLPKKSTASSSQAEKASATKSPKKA

Results are given in words; binding and its absence hold for the method and conditions named. In cells and extracts the contact can be indirect. A yes stands for co-enrichment or nearness to the bait. Other partners may have been found. A no says only that the protein was not detected with the bait. Where a sequence is shown, tags or fusion partners need not be part of it.

Sequences and labels used below:
T1: APRF1-3xFLAG (ANTHESIS PROMOTING FACTOR 1, FLAG-tagged) (Arabidopsis thaliana) (UniProt Q9LYK6)
T1 sequence: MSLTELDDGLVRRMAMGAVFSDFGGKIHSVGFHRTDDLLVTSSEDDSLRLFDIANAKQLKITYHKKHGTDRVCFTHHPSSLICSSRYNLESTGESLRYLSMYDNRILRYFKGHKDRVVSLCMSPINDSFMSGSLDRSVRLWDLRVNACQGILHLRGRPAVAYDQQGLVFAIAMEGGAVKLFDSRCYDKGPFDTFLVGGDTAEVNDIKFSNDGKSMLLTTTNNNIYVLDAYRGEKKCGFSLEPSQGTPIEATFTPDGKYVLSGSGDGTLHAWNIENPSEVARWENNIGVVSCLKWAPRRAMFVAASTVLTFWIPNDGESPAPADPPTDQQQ

B1: LU… (LD) (protein, UniProt Q38796 1-953)
chain: MDAFKEEIEIGSSVESLMELLDSQKVLFHSQIDQLQDVVVAQCKLTGVNPLAQEMAAGALSIKIGKRPRDLLNPKAVKYLQAVFAIKDAISKRESREISALFGITVAQVREFFVTQKTRVRKQVRLSREKVVMSNTHALQDDGVPENNNATNHVEPVPLNSIHPEACSISWGEGETVALIPPEDIPPDISDSDKYFVENIFSLLRKEETFSGQVKLMEWIMQIQDASVLIWFLSKGGVLILTTWLSQAASEEQTSVLLLILKVLCHLPLHKASPENMSAILQSVNGLRFYRISDISNRAKGLLSRWTKLFAKIQAMKKQNRNSSQIDSQSQLLLKQSIAEIMGDSSNPEDILSLSNGKSENVRRIESSQGPKLLLTSADDSTKKHMLGSNPSYNKERRKVQMVEQPGQKAAGKSPQTVRIGTSGRSRPMSADDIQKAKMRALYMQSKNSKKDPLPSAIGDSKIVAPEKPLALHSAKDSPPIQNNEAKTEDTPVLSTVQPVNGFSTIQPVNGPSAVQPVNGPLAVQPVNGPSALQPVNGPSAVIVPVQADEIKKPSTPPKSISSKVGVMMKMSSQTILKNCKRKQIDWHVPPGMELDELWRVAAGGNSKEADVQRNRNRRERETTYQSLQTIPLNPKEPWDREMDYDDSLTPEIPSQQPPEESLTEPQDSLDERRIAAGAATTSSSLSSPEPDLELLAALLKNPDLVYALTSGKPSNLAGQDMVKLLDVIKTGAPNSSSSSNKQVEERVEVSLPSPTPSTNPGMSGWGQEGIRNPFSRQNQVGTAVARSGTQLRVGSMQWHQTNEQSIPRHAPSAYSNSITLAHTEREQQQYMQPKLHHNLHFQQQQQQPISTTSYAVREPVGQMGTGTSSSWRSQQSQNSYYSHQENEIASASQVTSYQGNSQYMSSNPGYESWSPDNSPSRNQLNMRGQQQQASRKHDSSTHPYWNQNKRWR
B2: C-terminal domain phosphatase-like 3 (CPL3) (enzyme, UniProt Q8LL04 1-1241)
chain: MLVARSGCSRTLIRMGNDENLMVMVDVEEGEIPDSVNTEIEVKHKSTTTTADVGGDVDVGVVAGGRGGGGGGSNGNSRVWTMEELISQYPAYRPYANSGLSNLAWARAVQNKPFNEGLVMDYEPRESDKIVIEDSDDEKEEGELEEGEIDLVDNASDDNLVEKDTESVVLISADKVEDDRILKERDLEKKVKLIRGVLESTSLVEAQTGFEGVCSRILGALESLRELVSDNDDFPKRDTLVQLSFASLQTINYVFCSMNNISKERNKETMSRLLTLVNDHFSQFLSFNQKNEIETMNQDLSRSAIAVFAGTSSEENVNQMTQPSNGDSFLAKKLTSESTHRGAAYLRSRLPMLPLLDLHKDHDADSLPSPTRETTPSLPVNGRHTMVRPGFPVGRESQTTEGAKVYSYESDARKAVSTYQQKFGLNSVFKTDDLPSPTPSGEPNDGNGDVGGEVSSSVVKSSNPGSHLIYGQDVPLPSNFNSRSMPVANSVSSTVPPHHLSIHAISAPTASDQTVKPSAKSRDPRLRLAKPDAANVTIYSYSSGDARNLSKVELSADLVNPRKQKAADEFLIDGPAWKRQKSDTDAPKAAGTGGWLEDTESSGLLKLESKPRLIENGVTSMTSSVMPTSAVSVSQKVRTASTDTASLQSLLKDIAVNPTMLLNLLKMGERQKVPEKAIQKPMDPRRAAQLPGSSVQPGVSTPLSIPASNALAANSLNSGVLQDSSQNAPAAESGSIRMKPRDPRRILHGSTLQRTDSSMEKQTKVNDPSTLGTLTMKGKAEDLETPPQLDPRQNISQNGTSKMKISGELLSGKTPDFSTQFTKNLKSIADMVVVSQQLGNPPASMHSVQLKTERDVKHNPSNPNAQDEDVSVSAASVTAAAGPTRSMNSWGDVEHLFEGYDDIQRVAIQRERVRRLEEQNKMFASQKLSLVLDIDHTLLNSAKFNEVESRHEEILRKKEEQDREKPYRHLFRFLHMGMWTKLRPGIWNFLEKASKLYELHLYTMGNKLYATEMAKLLDPKGVLFNGRVISKGDDGDPLDGDERVPKSKDLEGVMGMESSVVIIDDSVRVWPQHKMNLIAVERYLYFPCSRRQFGLLGPSLLELDRDEVPEEGTLASSLAVIEKIHQNFFSHTSLDEVDVRNILASEQRKILAGCRIVFSRIIPVGEAKPHLHPLWQTAEQFGAVCTTQVDEHVTHVVTNSLGTDKVNWALTRGRFVVHPGWVEASAFLYQRANENLYAINP
B3: CPSF100 (protein, UniProt Q9LKF9 1-739)
chain: MGTSVQVTPLCGVYNENPLSYLVSIDGFNFLIDCGWNDLFDTSLLEPLSRVASTIDAVLLSHPDTLHIGALPYAMKQLGLSAPVYATEPVHRLGLLTMYDQFLSRKQVSDFDLFTLDDIDSAFQNVIRLTYSQNYHLSGKGEGIVIAPHVAGHMLGGSIWRITKDGEDVIYAVDYNHRKERHLNGTVLQSFVRPAVLITDAYHALYTNQTARQQRDKEFLDTISKHLEVGGNVLLPVDTAGRVLELLLILEQHWSQRGFSFPIYFLTYVSSSTIDYVKSFLEWMSDSISKSFETSRDNAFLLRHVTLLINKTDLDNAPPGPKVVLASMASLEAGFAREIFVEWANDPRNLVLFTETGQFGTLARMLQSAPPPKFVKVTMSKRVPLAGEELIAYEEEQNRLKREEALRASLVKEEETKASHGSDDNSSEPMIIDTKTTHDVIGSHGPAYKDILIDGFVPPSSSVAPMFPYYDNTSEWDDFGEIINPDDYVIKDEDMDRGAMHNGGDVDGRLDEATASLMLDTRPSKVMSNELIVTVSCSLVKMDYEGRSDGRSIKSMIAHVSPLKLVLVHAIAEATEHLKQHCLNNICPHVYAPQIEETVDVTSDLCAYKVQLSEKLMSNVIFKKLGDSEVAWVDSEVGKTERDMRSLLPMPGAASPHKPVLVGDLKIADFKQFLSSKGVQVEFAGGGALRCGEYVTLRKVGPTGQKGGASGPQQILIEGPLCEDYYKIRDYLYSQFYLL
B4: FLOWERING LOCUS D (FLD) (enzyme, UniProt Q9CAE3 1-789)
chain: MVSFSAPKKRRRGRSQRSMSSLNSLPVPNVGLLPGNSNFVSSSASSSGRFNVEVVNGSNQTVKSYPGIGDEIITINKEATTEALLALTAGFPADSLTEEEIEFGVVPIVGGIEQVNYILIRNHIISKWRENISSWVTKEMFLNSIPKHCSSLLDSAYNYLVTHGYINFGIAQAIKDKFPAQSSKSSVIIVGAGLSGLAAARQLMRFGFKVTVLEGRKRPGGRVYTKKMEANRVGAAADLGGSVLTGTLGNPLGIIARQLGSSLYKVRDKCPLYRVDGKPVDPDVDIKVEVAFNQLLDKASKLRQLMGDVSMDVSLGAALETFRQVSGNDVATEEMGLFNWHLANLEYANAGLVSKLSLAFWDQDDPYDMGGDHCFLPGGNGRLVQALAENVPILYEKTVQTIRYGSNGVKVTAGNQVYEGDMVLCTVPLGVLKNGSIKFVPELPQRKLDCIKRLGFGLLNKVAMLFPYVFWSTDLDTFGHLTEDPNYRGEFFLFYSYAPVAGGALLIALVAGEAAHKFETMPPTDAVTRVLHILRGIYEPQGINVPDPLQTVCTRWGGDPFSLGSYSNVAVGASGDDYDILAESVGDGRLFFAGEATTRRYPATMHGAFVTGLREAANMAQSAKARGIRKRIDRNPSRNAHSCAILLADLFRDPDLEFGSFCIIFSRRNPDPKSPAILRVTLSEPRKRNEDPKADQHSNKILFQQLQSHFNQQQQIQVYTLLTRQQALDLREVRGGDEKRLYYLCETLGVKLVGRKGLGVGADSVIASIKAERTGRKLPSSSTSGTKSG
B5: Cstf64 (protein, UniProt Q9M9G6 1-461)
chain: MASSSSQRRCVFVGNIPYDATEEQLREICGEVGPVVSFRLVTDRETGKPKGYGFCEYKDEETALSARRNLQSYEINGRQLRVDFAENDKGTDKTRDQSQGGPGLPSTTTVTESQKQIGGPVDSNMHQPVGLHLATTAASVIAGALGGPQVGSQFTQSNLQVPASDPLALHLAKMSRSQLTEIISSIKLMATQNKEHARQLLVSRPQLLKAVFLAQVMLGIVSPQVLQSPNIVQAPSHMTGSSIQDAQLSGQNLLPPLAQRSQQLSRAPHSQYPVQQSSKQPFSQIPQLVAQPGPSSVNPPPRSQVKVENAPFQRQQVVPASTNIGYSSQNSVPNNAIQPSQVPHQALPNSVMQQGGQTVSLNFGKRINEGPPHQSMNRPSKMMKVEDRRTTSLPGGHVSNSMLPNQAQAPQTHISPDVQSTLLQQVMNLTPEQLRLLTPEQQQEVLKLQQALKQDHMMQPS

In the assay the target is T1, APRF1-3xFLAG (ANTHESIS PROMOTING FACTOR 1, FLAG-tagged) (Arabidopsis thaliana). The assay can be described thus: affinity purification with mass spectrometry; crosslinked nuclear immunoprecipitation and mass spectrometry (CLNIP-MS): 10-day-old APRF1pro:APRF1-3xFLAG seedlings against Col-0 control, 1% formaldehyde crosslinking, purified nuclei, Benzonase, anti-FLAG antibody on M-270 epoxy Dynabeads overnight at 4°C, three biological replicates.
With ESP4, the binding result is on record as “no binding”.

As to “INT7 (Arabidopsis homolog of Integrator subunit 7)”, the binding result was “no binding”. Take “INT9 (Arabidopsis homolog of Integrator subunit 9)”: the binding result is recorded as “no binding”. “INT11 (Arabidopsis homolog of Integrator subunit 11)”: the binding entry is recorded as “no binding”. On to Ssu72 (Arabidopsis) (enzyme), for which the binding result is reported as “no binding”. “TYPE ONE SERINE/THREONINE PROTEIN PHOSPHATASE 4 (TOPP4) (from UniProt P48484 1-321) (enzyme)”: the binding entry is given as “binds”. For “histone H2A.W.7 (from UniProt Q94F49 1-150)” the value was “binds”. For B1 the value was “binds”. B2: the binding result was “binds”. For B3 the value was “binds”; for B4, “binds”; for B5, “no binding”.
